The supplement of paper PMC12067093, “Discovery and optimisation of a covalent ligand for TRIM25 and its application to targeted protein ubiquitination” (Chemical Science, 2025)
The list shows a part of the results.

Sequences of proteins named here, by UniProt entry; tags and fusion partners are left off. A change or cut given only in a name is not applied to a line headed by its entry.
UniProt Q6P6C2: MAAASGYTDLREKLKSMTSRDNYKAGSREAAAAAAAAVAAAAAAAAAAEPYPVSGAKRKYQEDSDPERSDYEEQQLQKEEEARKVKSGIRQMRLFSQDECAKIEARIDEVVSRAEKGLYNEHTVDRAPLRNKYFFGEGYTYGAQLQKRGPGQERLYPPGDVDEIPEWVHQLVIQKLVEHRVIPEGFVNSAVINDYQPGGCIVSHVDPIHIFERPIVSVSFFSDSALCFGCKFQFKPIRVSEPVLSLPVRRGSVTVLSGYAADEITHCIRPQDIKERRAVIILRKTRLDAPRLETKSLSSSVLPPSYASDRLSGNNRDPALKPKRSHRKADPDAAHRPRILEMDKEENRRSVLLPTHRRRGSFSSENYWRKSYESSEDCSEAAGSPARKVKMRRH
UniProt Q01433: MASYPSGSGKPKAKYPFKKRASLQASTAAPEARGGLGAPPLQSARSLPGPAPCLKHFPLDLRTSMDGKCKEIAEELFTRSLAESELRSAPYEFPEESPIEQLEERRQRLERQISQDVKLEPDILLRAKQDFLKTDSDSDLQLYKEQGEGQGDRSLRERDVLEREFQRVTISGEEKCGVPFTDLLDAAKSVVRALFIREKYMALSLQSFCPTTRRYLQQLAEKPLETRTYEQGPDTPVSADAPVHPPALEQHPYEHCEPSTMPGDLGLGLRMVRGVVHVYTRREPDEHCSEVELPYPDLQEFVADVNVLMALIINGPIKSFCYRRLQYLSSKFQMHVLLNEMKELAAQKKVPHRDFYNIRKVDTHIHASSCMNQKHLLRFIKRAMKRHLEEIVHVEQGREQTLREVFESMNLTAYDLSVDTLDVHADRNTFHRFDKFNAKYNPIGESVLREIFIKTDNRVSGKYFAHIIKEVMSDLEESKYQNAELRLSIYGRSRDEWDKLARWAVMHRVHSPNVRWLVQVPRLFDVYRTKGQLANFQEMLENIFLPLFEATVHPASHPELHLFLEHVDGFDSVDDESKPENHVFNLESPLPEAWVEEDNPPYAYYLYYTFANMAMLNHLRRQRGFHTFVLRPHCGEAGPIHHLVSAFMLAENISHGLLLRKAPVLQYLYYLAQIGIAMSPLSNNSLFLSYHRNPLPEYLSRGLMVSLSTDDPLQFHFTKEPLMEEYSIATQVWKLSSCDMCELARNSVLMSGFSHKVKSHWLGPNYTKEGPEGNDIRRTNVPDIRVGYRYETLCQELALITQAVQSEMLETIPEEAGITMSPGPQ
UniProt Q99943: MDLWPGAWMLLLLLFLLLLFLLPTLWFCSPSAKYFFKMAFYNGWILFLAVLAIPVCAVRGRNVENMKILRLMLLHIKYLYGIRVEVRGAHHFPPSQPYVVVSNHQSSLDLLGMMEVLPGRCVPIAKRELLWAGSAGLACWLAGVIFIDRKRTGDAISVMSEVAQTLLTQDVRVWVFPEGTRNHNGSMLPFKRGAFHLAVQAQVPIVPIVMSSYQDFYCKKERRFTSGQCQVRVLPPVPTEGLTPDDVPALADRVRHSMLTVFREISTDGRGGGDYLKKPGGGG
UniProt Q9P2R3: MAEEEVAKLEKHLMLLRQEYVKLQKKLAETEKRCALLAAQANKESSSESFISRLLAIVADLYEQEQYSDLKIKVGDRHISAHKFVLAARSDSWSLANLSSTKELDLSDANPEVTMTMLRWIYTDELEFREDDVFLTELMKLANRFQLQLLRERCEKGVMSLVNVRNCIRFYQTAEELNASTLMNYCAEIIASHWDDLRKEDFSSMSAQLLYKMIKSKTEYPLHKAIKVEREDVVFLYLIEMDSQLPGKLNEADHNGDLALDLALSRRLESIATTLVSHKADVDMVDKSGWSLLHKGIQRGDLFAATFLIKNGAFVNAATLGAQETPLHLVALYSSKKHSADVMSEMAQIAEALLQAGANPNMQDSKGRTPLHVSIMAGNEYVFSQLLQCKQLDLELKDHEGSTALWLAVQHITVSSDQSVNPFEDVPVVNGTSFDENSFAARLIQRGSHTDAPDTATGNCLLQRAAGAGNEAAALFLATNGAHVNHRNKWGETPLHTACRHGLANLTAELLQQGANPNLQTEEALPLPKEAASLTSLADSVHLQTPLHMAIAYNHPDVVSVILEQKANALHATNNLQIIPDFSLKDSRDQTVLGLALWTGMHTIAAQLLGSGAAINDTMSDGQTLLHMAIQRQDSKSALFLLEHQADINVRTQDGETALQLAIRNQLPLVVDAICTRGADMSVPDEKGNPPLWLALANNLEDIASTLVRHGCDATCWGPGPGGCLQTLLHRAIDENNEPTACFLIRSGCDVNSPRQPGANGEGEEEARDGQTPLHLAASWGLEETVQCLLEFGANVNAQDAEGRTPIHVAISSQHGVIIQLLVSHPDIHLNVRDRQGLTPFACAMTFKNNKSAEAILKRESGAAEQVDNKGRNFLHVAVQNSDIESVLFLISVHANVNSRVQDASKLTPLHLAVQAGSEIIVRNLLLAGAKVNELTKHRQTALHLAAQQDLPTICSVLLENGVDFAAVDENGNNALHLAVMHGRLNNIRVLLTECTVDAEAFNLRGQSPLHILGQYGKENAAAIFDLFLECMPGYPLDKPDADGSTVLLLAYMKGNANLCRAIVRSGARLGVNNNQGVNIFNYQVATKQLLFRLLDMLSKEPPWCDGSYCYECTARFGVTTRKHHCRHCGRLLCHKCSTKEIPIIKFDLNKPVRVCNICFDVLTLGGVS
UniProt Q9UJX3, whole entry, looked up: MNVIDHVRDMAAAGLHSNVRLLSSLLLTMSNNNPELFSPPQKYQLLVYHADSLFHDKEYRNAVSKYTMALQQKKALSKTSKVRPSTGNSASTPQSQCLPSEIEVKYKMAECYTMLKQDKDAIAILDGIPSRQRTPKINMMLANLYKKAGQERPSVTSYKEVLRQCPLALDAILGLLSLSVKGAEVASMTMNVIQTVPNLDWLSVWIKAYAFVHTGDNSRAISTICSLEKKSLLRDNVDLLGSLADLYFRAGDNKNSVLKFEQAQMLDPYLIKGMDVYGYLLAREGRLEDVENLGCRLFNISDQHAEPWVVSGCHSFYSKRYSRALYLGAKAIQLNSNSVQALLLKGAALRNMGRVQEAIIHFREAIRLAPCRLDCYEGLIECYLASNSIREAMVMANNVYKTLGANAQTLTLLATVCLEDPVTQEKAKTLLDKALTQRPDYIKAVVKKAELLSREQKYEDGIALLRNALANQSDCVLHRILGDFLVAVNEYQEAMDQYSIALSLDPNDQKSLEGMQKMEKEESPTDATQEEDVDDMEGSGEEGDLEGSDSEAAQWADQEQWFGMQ
UniProt Q9UKV5, whole entry, looked up: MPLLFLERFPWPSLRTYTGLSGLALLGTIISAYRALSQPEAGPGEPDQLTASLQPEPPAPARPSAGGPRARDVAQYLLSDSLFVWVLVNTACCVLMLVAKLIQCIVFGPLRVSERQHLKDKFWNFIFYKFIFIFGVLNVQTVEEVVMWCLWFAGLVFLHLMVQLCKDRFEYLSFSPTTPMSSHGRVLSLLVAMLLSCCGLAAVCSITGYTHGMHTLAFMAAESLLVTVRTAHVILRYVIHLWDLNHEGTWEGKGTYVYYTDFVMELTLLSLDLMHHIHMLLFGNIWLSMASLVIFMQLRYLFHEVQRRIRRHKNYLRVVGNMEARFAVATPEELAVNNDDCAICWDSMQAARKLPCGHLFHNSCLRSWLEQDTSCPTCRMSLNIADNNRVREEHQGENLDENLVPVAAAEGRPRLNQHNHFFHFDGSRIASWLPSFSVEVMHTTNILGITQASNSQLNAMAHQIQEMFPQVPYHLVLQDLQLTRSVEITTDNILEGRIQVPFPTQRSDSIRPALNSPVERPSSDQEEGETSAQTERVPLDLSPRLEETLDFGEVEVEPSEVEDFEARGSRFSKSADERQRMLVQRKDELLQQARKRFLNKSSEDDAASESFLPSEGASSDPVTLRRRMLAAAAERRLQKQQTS
UniProt Q8WYP5: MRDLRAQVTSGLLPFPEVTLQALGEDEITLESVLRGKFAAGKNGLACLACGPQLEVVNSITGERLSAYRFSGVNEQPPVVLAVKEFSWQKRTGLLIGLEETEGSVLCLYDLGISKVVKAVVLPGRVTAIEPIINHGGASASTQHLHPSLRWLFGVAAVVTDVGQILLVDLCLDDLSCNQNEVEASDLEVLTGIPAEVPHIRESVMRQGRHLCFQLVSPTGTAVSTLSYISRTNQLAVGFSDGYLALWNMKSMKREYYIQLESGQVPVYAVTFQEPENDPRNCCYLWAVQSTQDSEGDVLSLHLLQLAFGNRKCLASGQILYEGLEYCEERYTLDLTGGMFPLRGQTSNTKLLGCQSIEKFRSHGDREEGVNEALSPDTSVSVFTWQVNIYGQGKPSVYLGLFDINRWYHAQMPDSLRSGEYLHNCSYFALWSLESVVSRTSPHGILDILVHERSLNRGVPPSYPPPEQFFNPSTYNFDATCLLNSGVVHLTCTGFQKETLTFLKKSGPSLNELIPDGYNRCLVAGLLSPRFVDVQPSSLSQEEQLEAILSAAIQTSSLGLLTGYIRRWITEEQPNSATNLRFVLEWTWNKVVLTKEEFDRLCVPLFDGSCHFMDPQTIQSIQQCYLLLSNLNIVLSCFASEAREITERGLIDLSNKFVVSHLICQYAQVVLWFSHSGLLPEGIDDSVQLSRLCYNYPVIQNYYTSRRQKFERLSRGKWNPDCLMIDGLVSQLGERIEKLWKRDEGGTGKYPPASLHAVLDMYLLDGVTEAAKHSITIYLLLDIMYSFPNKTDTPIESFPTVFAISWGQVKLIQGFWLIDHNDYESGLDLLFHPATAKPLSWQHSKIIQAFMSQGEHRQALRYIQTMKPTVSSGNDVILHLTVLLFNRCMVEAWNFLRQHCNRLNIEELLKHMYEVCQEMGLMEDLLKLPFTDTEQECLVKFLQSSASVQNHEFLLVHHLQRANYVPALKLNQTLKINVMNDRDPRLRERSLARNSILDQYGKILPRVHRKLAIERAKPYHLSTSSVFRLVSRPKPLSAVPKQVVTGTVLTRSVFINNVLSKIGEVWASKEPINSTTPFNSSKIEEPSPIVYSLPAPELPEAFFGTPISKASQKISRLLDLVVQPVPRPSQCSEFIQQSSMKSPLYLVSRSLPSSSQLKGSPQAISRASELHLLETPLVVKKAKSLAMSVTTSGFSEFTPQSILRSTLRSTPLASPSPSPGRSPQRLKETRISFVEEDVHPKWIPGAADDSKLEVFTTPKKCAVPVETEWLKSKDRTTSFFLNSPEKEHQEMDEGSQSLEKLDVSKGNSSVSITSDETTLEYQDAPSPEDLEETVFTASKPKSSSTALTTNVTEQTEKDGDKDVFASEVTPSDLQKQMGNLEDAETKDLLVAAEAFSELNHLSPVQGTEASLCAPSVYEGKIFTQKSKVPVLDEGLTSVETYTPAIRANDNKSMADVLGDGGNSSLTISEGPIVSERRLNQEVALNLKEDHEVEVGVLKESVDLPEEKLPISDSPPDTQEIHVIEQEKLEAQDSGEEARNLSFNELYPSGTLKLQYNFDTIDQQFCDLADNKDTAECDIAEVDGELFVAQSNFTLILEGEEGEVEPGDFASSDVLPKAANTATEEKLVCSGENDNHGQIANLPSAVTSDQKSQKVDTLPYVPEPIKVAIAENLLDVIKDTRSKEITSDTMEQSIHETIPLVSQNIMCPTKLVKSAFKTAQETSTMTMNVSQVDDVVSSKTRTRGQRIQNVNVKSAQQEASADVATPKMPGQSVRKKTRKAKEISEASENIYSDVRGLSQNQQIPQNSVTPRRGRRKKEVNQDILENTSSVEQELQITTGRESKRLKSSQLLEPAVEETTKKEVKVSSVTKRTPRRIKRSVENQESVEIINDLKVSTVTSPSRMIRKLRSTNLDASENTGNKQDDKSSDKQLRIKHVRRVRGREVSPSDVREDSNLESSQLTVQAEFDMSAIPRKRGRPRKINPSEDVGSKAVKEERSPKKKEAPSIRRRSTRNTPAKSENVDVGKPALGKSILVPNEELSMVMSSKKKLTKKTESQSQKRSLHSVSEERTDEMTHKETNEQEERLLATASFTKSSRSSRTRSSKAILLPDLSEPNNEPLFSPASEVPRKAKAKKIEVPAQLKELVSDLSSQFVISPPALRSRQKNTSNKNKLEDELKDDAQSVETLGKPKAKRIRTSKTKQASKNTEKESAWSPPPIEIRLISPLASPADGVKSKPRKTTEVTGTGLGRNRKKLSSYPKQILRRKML
UniProt Q9NYG5, whole entry, looked up: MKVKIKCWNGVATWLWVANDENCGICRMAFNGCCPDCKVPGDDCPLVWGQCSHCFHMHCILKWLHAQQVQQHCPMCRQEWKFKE
UniProt P04075: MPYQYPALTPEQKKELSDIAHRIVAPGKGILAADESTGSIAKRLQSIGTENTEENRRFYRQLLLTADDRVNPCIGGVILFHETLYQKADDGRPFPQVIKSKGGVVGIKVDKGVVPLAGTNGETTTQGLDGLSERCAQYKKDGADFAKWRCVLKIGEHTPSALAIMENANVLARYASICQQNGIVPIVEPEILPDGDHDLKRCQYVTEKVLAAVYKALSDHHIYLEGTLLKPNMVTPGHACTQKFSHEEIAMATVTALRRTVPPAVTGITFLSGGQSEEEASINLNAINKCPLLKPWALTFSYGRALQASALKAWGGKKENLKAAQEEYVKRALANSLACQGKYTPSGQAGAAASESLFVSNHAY

compound: Cc1cc(ccc1-c1ccccc1)C(=O)N1CCCN(CC1)C(=O)CCl [compound 10]; test: probe-labelled cysteine peptide fold change vs DMSO (competition) (log2 fold change); higher = less target engagement (more negative = stronger competition); conditions: 10 µM; THP-1; incubation time: 4 h
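Also: competitive profiling in live THP-1 cells: cysteine peptides tagged with an iodoacetamide desthiobiotin (IA-DTB) probe, intensity after compound treatment relative to DMSO-treated cells.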

First: ANKHD1_Q8IWZ3_1965_QLFACVPK (UniProt Q8IWZ3)
Second: ALDH3A2_P51648_220+226_DCDLDIVCR (UniProt P51648)
The “probe-labelled cysteine peptide fold change” value of the first is lower: -0.214 for the first, 0.249 for the second.

Compared with “ALDOB_P05062_240_ALNDHHVYLEGTLLKPNMVTAGHACTK (UniProt P05062)”, “ALDH9A1_P49189_443_VVAELQAGTCFINNYNVSPVELPFGGYKK (UniProt P49189)” is higher in “probe-labelled cysteine peptide fold change” value: -0.247 for the first, 0.0937 for the second.

Going from “ALDH5A1_P51649_272_EVGEAICTDPLVSK (UniProt P51649)” to “ALKBH5_Q6P6C2_378_SYESSEDCSEAAGSPARK (UniProt Q6P6C2)”, the “probe-labelled cysteine peptide fold change” value falls from 0.233 to -0.176.

Compared with “AHSA1_O95433_301_NGETELCMEGR (UniProt O95433)”, “AHCYL1_O43865_395_NSCIVCNMGHSNTEIDVTSLR (UniProt O43865)” is higher in “probe-labelled cysteine peptide fold change” value: -0.0489 for the first, 0.199 for the second.

First: ALDH3A2_P51648_226_DCDLDIVCR (UniProt P51648)
Second: AMPD2_Q01433_107_SLPGPAPCLK (UniProt Q01433)
The “probe-labelled cysteine peptide fold change” value of the first is higher: -0.0334 for the first, -0.0605 for the second.

Compared with “AHCYL2_Q96HN2_232_IVGCTHITAQTAVLMETLGALGAQCR (UniProt Q96HN2)”, “AMACR_Q9UHK6_284_AEWCQIFDGTDACVTPVLTFEEVVHHDHNK (UniProt Q9UHK6)” is lower in “probe-labelled cysteine peptide fold change” value: 0.123 for the first, -0.165 for the second.

Going from “ALDH2_P05091_386_LLCGGGIAADR (UniProt P05091)” to “AMPD2_Q01433_792_LSSCDMCELAR (UniProt Q01433)”, the “probe-labelled cysteine peptide fold change” value rises from -0.131 to 0.143.

Compared with “AGPAT1_Q99943_229_RFTSGQCQVR (UniProt Q99943)”, “AIP_O00170_78_FKLPVWETIVCTMR (UniProt O00170)” is lower in “probe-labelled cysteine peptide fold change” value: 0.486 for the first, -0.305 for the second.

First: AMBP_P02760_277_ECLQTCR (UniProt P02760)
Second: ALDH9A1_P49189_267_SPLIIFSDCDMNNAVK (UniProt P49189)
The “probe-labelled cysteine peptide fold change” value of the first is lower: -0.0115 for the first, 0.208 for the second.

First: ANKFY1_Q9P2R3_742_AIDENNEPTACFLIR (UniProt Q9P2R3)
Second: ANAPC7_Q9UJX3_329_EGRLEDVENLGCR (UniProt Q9UJX3)
The “probe-labelled cysteine peptide fold change” value of the first is lower: -0.0754 for the first, -0.0392 for the second.

Compared with “ALDH18A1_P54886_606+612_CEYPAACNALETLLIHR (UniProt P54886)”, “AMFR_Q9UKV5_356+364_KLPCGHLFHNSCLR (UniProt Q9UKV5)” is lower in “probe-labelled cysteine peptide fold change” value: 0.202 for the first, 0.0916 for the second.

Going from “ALKBH8_Q96BT7_296_YLWTHGITCR (UniProt Q96BT7)” to “ALDH18A1_P54886_546_EEVEDLCR (UniProt P54886)”, the “probe-labelled cysteine peptide fold change” value falls from -0.00127 to -0.122.

Compared with “ANKFY1_Q9P2R3_724_HGCDATCWGPGPGGCLQTLLHR (UniProt Q9P2R3)”, “AKR7A2_O43488_132+156_LQCPQVDLFYLHAPDHGTPVEETLHACQR (UniProt O43488)” is lower in “probe-labelled cysteine peptide fold change” value: 0.0967 for the first, -0.102 for the second.

Going from “AKR1A1_P14550_187_QIDDILSVASVRPAVLQVECHPYLAQNELIAHCQAR (UniProt P14550)” to “AKR1B1_P15121_299+304_VCALLSCTSHK (UniProt P15121)”, the “probe-labelled cysteine peptide fold change” value falls from 0.172 to -0.497.

First: AHCTF1_Q8WYP5_722_WNPDCLMIDGLVSQLGER (UniProt Q8WYP5)
Second: AKAP9_Q99996_3508_LIEMNGGGTGCNHELEMIR (UniProt Q99996)
The “probe-labelled cysteine peptide fold change” value of the first is higher: 0.145 for the first, -0.0253 for the second.

Compared with “AGPS_O00116_190_AHGHCLHEIFLLR (UniProt O00116)”, “ALAD_P13716_75_CVLIFGVPSR (UniProt P13716)” is higher in “probe-labelled cysteine peptide fold change” value: 0.0702 for the first, 0.166 for the second.

Compared with “ALDH16A1_Q8IZ83_249_KVAFCGAPEEGR (UniProt Q8IZ83)”, “ALG1_Q9BT22_317_FEQLTLDGHNLPSLVCVITGK (UniProt Q9BT22)” is higher in “probe-labelled cysteine peptide fold change” value: 0.0423 for the first, 0.246 for the second.

Compared with “AGPS_O00116_404_YGSVAFPNFEQGVACLR (UniProt O00116)”, “ANAPC11_Q9NYG5_76_WLHAQQVQQHCPMCR (UniProt Q9NYG5)” is higher in “probe-labelled cysteine peptide fold change” value: -0.0669 for the first, 0.147 for the second.

First: ALCAM_Q13740_313_CSLIDKK (UniProt Q13740)
Second: ALDOA_P04075_339_RALANSLACQGK (UniProt P04075)
The “probe-labelled cysteine peptide fold change” value of the first is lower: -0.211 for the first, -0.187 for the second.

For “AHCYL1_O43865_373_QVDVVITCTGNK (UniProt O43865)”, the “probe-labelled cysteine peptide fold change” value was 0.0162.

same assay, conditions: 50 µM; THP-1; incubation time: 4 h

Compared with “ANKHD1_Q8IWZ3_1965_QLFACVPK (UniProt Q8IWZ3)”, “ALDH3A2_P51648_220+226_DCDLDIVCR (UniProt P51648)” is higher in “probe-labelled cysteine peptide fold change” value: -0.155 for the first, 0.311 for the second.

First: ALDOB_P05062_240_ALNDHHVYLEGTLLKPNMVTAGHACTK (UniProt P05062)
Second: ALDH9A1_P49189_443_VVAELQAGTCFINNYNVSPVELPFGGYKK (UniProt P49189)
The “probe-labelled cysteine peptide fold change” value of the first is lower: -0.446 for the first, 0.103 for the second.

First: ALDH5A1_P51649_272_EVGEAICTDPLVSK (UniProt P51649)
Second: ALKBH5_Q6P6C2_378_SYESSEDCSEAAGSPARK (UniProt Q6P6C2)
The “probe-labelled cysteine peptide fold change” value of the first is higher: 0.207 for the first, -0.685 for the second.

Going from “AHSA1_O95433_301_NGETELCMEGR (UniProt O95433)” to “AHCYL1_O43865_395_NSCIVCNMGHSNTEIDVTSLR (UniProt O43865)”, the “probe-labelled cysteine peptide fold change” value falls from 0.249 to -0.158.

Going from “ALDH3A2_P51648_226_DCDLDIVCR (UniProt P51648)” to “AMPD2_Q01433_107_SLPGPAPCLK (UniProt Q01433)”, the “probe-labelled cysteine peptide fold change” value falls from -0.00592 to -0.711.

Going from “AHCYL2_Q96HN2_232_IVGCTHITAQTAVLMETLGALGAQCR (UniProt Q96HN2)” to “AMACR_Q9UHK6_284_AEWCQIFDGTDACVTPVLTFEEVVHHDHNK (UniProt Q9UHK6)”, the “probe-labelled cysteine peptide fold change” value falls from 0.0597 to -0.0779.

Compared with “ALDH2_P05091_386_LLCGGGIAADR (UniProt P05091)”, “AMPD2_Q01433_792_LSSCDMCELAR (UniProt Q01433)” is higher in “probe-labelled cysteine peptide fold change” value: -0.106 for the first, -0.0423 for the second.

Compared with “AGPAT1_Q99943_229_RFTSGQCQVR (UniProt Q99943)”, “AIP_O00170_78_FKLPVWETIVCTMR (UniProt O00170)” is lower in “probe-labelled cysteine peptide fold change” value: 0.499 for the first, -0.108 for the second.

First: AMBP_P02760_277_ECLQTCR (UniProt P02760)
Second: ALDH9A1_P49189_267_SPLIIFSDCDMNNAVK (UniProt P49189)
The “probe-labelled cysteine peptide fold change” value of the first is higher: 0.386 for the first, 0.2 for the second.

Going from “ANKFY1_Q9P2R3_742_AIDENNEPTACFLIR (UniProt Q9P2R3)” to “ANAPC7_Q9UJX3_329_EGRLEDVENLGCR (UniProt Q9UJX3)”, the “probe-labelled cysteine peptide fold change” value falls from -0.213 to -0.302.

First: ALDH18A1_P54886_606+612_CEYPAACNALETLLIHR (UniProt P54886)
Second: AMFR_Q9UKV5_356+364_KLPCGHLFHNSCLR (UniProt Q9UKV5)
The “probe-labelled cysteine peptide fold change” value of the first is lower: -0.341 for the first, -0.0158 for the second.

First: ALKBH8_Q96BT7_296_YLWTHGITCR (UniProt Q96BT7)
Second: ALDH18A1_P54886_546_EEVEDLCR (UniProt P54886)
The “probe-labelled cysteine peptide fold change” value of the first is lower: -0.239 for the first, 0.165 for the second.

Compared with “ANKFY1_Q9P2R3_724_HGCDATCWGPGPGGCLQTLLHR (UniProt Q9P2R3)”, “AKR7A2_O43488_132+156_LQCPQVDLFYLHAPDHGTPVEETLHACQR (UniProt O43488)” is lower in “probe-labelled cysteine peptide fold change” value: 0.124 for the first, 0.0726 for the second.

Compared with “AKR1A1_P14550_187_QIDDILSVASVRPAVLQVECHPYLAQNELIAHCQAR (UniProt P14550)”, “AKR1B1_P15121_299+304_VCALLSCTSHK (UniProt P15121)” is lower in “probe-labelled cysteine peptide fold change” value: 0.161 for the first, -2.06 for the second.

First: AHCTF1_Q8WYP5_722_WNPDCLMIDGLVSQLGER (UniProt Q8WYP5)
Second: AKAP9_Q99996_3508_LIEMNGGGTGCNHELEMIR (UniProt Q99996)
The “probe-labelled cysteine peptide fold change” value of the first is higher: 0.111 for the first, -0.114 for the second.

Compared with “AGPS_O00116_190_AHGHCLHEIFLLR (UniProt O00116)”, “ALAD_P13716_75_CVLIFGVPSR (UniProt P13716)” is higher in “probe-labelled cysteine peptide fold change” value: -0.206 for the first, 0.185 for the second.

Compared with “ALDH16A1_Q8IZ83_249_KVAFCGAPEEGR (UniProt Q8IZ83)”, “ALG1_Q9BT22_317_FEQLTLDGHNLPSLVCVITGK (UniProt Q9BT22)” is higher in “probe-labelled cysteine peptide fold change” value: -0.438 for the first, 0.277 for the second.

Compared with “AGPS_O00116_404_YGSVAFPNFEQGVACLR (UniProt O00116)”, “ANAPC11_Q9NYG5_76_WLHAQQVQQHCPMCR (UniProt Q9NYG5)” is lower in “probe-labelled cysteine peptide fold change” value: 0.176 for the first, 0.0305 for the second.

Compared with “ALCAM_Q13740_313_CSLIDKK (UniProt Q13740)”, “ALDOA_P04075_339_RALANSLACQGK (UniProt P04075)” is higher in “probe-labelled cysteine peptide fold change” value: -0.22 for the first, -0.104 for the second.

In the case of “AHCYL1_O43865_373_QVDVVITCTGNK (UniProt O43865)”, the “probe-labelled cysteine peptide fold change” value is reported as -0.173.
